# Assay: general procedure: solution-phase peptide synthesis; HATU/HOAt/DIPEA
# Details: for step yield: coupling step
substance,measurement,setting,value
Kakeromamide A,cyclisation yield,"cyclisation step, on linear pentapeptide 2",40% for 3 steps
same,isolated yield,"whole synthesis, overall from thioamide 12",14%
pentapeptide 2,step yield,,71% for 2 steps
tetrapeptide 15,step yield,,83% for 2 steps
